In PMC5095148:
No constants are given. Whether binding was seen depends on the method and setting. Binding seen in cells or lysates may run through a third protein. Some results given as binding are weak or reduced against the parent protein; the word gives no strength. For some of these results: Tags and fused reporters may be left off the sequences shown.

By UniProt entry, the sequences of proteins in these tests, tags left out.
UniProt Q9H9Q2: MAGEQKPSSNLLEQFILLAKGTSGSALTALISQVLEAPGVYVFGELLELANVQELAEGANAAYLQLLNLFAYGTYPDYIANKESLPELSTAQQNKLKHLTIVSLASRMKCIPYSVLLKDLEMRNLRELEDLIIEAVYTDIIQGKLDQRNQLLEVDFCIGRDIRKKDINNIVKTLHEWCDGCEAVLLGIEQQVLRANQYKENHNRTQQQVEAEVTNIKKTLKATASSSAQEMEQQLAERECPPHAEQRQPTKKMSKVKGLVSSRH

What was measured:
Flag‐CSN7B (human) = Flag‐CSN7B (human) (UniProt Q9H9Q2); assay: pull-down; Flag‐pulldown: lysates of Flag‐CSN7A‐LiSa‐2 or Flag‐CSN7B‐LiSa‐2 cells on an ANTI‐FLAG M2 affinity column, washed with 20 column volumes of 1× TBS (50 mM Tris‐HCl, pH 7.4, 150 mM NaCl, 1 mM EDTA), eluted with Flag peptide (100 μg/mL); western blotting of the eluate
Flag‐CSN7A (human) = Flag‐CSN7A (human) (UniProt Q9UBW8); assay: as above
[1] = target: CSN7A (COP9 signalosome subunit 7A), endogenous (human (endogenous in LiSa‐2)) (UniProt Q9UBW8); assay: co-IP; endogenous CSN complexes immunoprecipitated from LiSa‐2 cell lysates with specific anti‐CSN7A or anti‐CSN7B antibodies (Santa Cruz); western blotting of the precipitates
[2] = target: CSN7B (COP9 signalosome subunit 7B), endogenous (human (endogenous in LiSa‐2)) (UniProt Q9H9Q2); assay: as above

Measured: binding

B1: ubiquitin‐specific protease 15 (USP15) (enzyme, UniProt Q9Y4E8 1-981)
chain: MAEGGAADLDTQRSDIATLLKTSLRKGDTWYLVDSRWFKQWKKYVGFDSWDKYQMGDQNVYPGPIDNSGLLKDGDAQSLKEHLIDELDYILLPTEGWNKLVSWYTLMEGQEPIARKVVEQGMFVKHCKVEVYLTELKLCENGNMNNVVTRRFSKADTIDTIEKEIRKIFSIPDEKETRLWNKYMSNTFEPLNKPDSTIQDAGLYQGQVLVIEQKNEDGTWPRGPSTPKSPGASNFSTLPKISPSSLSNNYNNMNNRNVKNSNYCLPSYTAYKNYDYSEPGRNNEQPGLCGLSNLGNTCFMNSAIQCLSNTPPLTEYFLNDKYQEELNFDNPLGMRGEIAKSYAELIKQMWSGKFSYVTPRAFKTQVGRFAPQFSGYQQQDCQELLAFLLDGLHEDLNRIRKKPYIQLKDADGRPDKVVAEEAWENHLKRNDSIIVDIFHGLFKSTLVCPECAKISVTFDPFCYLTLPLPMKKERTLEVYLVRMDPLTKPMQYKVVVPKIGNILDLCTALSALSGIPADKMIVTDIYNHRFHRIFAMDENLSSIMERDDIYVFEININRTEDTEHVIIPVCLREKFRHSSYTHHTGSSLFGQPFLMAVPRNNTEDKLYNLLLLRMCRYVKISTETEETEGSLHCCKDQNINGNGPNGIHEEGSPSEMETDEPDDESSQDQELPSENENSQSEDSVGGDNDSENGLCTEDTCKGQLTGHKKRLFTFQFNNLGNTDINYIKDDTRHIRFDDRQLRLDERSFLALDWDPDLKKRYFDENAAEDFEKHESVEYKPPKKPFVKLKDCIELFTTKEKLGAEDPWYCPNCKEHQQATKKLDLWSLPPVLVVHLKRFSYSRYMRDKLDTLVDFPINDLDMSEFLINPNAGPCRYNLIAVSNHYGGMGGGHYTAFAKNKDDGKWYYFDDSSVSTASEDQIVSKAAYVLFYQRQDTFSGTGFFPLDRETKGASAATGIPLESDEDSNDNDNDIENENCMHTN
binds: all assays above
